# In article PMC3507953:
# Results are given in words; binding and its absence hold for the method and conditions named. In cells and extracts the contact can be indirect. Some binding calls cover weakened binding; strength is not graded here. Tags and fused reporters may be left off the sequences shown.
# T1: 3Flag-Zfp423 (293T) (UniProt Q80TS5)
# T1 sequence: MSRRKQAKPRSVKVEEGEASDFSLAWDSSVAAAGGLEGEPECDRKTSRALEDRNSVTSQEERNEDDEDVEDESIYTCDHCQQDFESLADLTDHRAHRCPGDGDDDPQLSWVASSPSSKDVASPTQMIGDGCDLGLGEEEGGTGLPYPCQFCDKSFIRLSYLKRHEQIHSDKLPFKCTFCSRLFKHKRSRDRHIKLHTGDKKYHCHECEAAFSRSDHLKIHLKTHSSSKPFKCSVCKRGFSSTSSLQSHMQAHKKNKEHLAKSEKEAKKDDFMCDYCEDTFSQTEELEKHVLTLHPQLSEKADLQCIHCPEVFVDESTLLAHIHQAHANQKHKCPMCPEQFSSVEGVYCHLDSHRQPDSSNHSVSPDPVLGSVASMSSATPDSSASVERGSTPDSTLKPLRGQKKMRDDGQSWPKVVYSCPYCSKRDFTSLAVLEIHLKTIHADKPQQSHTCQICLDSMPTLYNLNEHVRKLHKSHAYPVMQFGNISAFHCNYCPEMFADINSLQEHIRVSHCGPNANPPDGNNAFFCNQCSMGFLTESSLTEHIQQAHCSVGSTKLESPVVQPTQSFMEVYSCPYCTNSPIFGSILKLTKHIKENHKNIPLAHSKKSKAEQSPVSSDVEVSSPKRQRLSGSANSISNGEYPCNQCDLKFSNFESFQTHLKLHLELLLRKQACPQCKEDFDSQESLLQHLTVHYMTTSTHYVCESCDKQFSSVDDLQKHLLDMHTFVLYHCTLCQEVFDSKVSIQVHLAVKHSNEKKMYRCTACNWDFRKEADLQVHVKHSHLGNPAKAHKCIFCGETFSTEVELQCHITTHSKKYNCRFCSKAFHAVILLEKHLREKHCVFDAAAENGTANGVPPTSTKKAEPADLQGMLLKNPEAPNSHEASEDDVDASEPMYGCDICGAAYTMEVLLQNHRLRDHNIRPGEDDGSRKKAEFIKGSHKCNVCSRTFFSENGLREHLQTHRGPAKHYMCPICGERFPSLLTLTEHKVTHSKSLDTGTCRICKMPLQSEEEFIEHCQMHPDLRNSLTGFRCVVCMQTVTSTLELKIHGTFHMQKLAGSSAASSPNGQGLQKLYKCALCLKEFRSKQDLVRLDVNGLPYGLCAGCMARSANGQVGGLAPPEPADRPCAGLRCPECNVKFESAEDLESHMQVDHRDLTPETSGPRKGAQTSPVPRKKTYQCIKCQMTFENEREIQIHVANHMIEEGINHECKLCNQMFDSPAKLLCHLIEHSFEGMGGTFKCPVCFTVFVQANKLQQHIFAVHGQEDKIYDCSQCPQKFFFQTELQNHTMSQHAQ
# T2: 6Myc-Ebf1 (293T) (UniProt Q07802)
# T2 sequence: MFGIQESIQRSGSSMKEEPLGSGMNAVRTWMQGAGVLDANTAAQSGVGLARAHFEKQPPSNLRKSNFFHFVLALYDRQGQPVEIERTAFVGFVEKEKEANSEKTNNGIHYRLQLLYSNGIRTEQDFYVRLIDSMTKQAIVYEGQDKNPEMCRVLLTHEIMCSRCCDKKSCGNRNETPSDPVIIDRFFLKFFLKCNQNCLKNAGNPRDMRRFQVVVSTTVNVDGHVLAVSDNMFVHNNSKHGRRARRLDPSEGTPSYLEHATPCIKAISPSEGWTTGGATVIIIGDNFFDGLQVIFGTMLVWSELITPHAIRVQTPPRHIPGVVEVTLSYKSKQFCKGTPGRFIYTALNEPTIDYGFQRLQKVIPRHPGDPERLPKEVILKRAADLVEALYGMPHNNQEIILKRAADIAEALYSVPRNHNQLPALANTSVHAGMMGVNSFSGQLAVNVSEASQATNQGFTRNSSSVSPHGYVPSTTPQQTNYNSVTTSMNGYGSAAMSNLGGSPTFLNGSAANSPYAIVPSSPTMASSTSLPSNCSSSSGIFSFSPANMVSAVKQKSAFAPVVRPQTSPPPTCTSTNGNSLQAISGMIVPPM
# B1: 2HA-Zfp521 (293T) (protein, UniProt Q6KAS7 1-1311)
# chain: MSRRKQAKPRSLKDPNCKLEDKIEDGEAVDCKKRPEDGEELEEDAVHSCDSCLQVFESLSDITEHKIHQCQLTDGVDVEDDPSCSWPASSPSSKDQTSPSHGEGCDFGEEEGGPGLPYPCQFCDKSFSRLSYLKHHEQSHSDKLPFKCTYCSRLFKHKRSRDRHIKLHTGDKKYHCSECDAAFSRSDHLKIHLKTHTSNKPYKCAVCRRGFLSSSSLHGHMQVHERNKDGSQSGSRMEDWKMKDTQKCSQCEEGFDFPEDLQKHIAECHPECSPNEDRAALQCMYCHELFVEETSLMNHIEQVHGGEKKNSCSICSESFLTVEELYSHMDSHQQPESCNHSNSPSLVTVGYTSVSSTTPDSNLSVDSSTMVEAAPPIPKSRGRKRAAQQTSDMTGPSSKQAKVTYSCIYCNKQLFSSLAVLQIHLKTMHLDKPEQAHICQYCLEVLPSLYNLNEHLKQVHEAQDPGLIVSAMPAIVYQCNFCSEVVNDLNTLQEHIRCSHGFANPAAKDSNAFFCPHCYMGFLTDSSLEEHIRQVHCDLSGSRFGSPVLGTPKEPVVEVYSCSYCTNSPIFNSVLKLNKHIKENHKNIPLALNYIHNGKKSRALSPLSPVAIEQTTLKMMQTVGGGPARASGEYICNQCGAKYTSLDSFQTHLKTHLDTVLPKLTCPQCNKEFPNQESLLKHVTIHFMITSTYYICESCDKQFTSVDDLQKHLLDMHTFVFFRCTLCQEVFDSKVSIQLHLAVKHSNEKKVYRCTSCNWDFRNETDLQLHVKHNHLENQGKVHKCIFCGESFGTEVELQCHITTHSKKYNCRFCSKAFHAVILLEKHLREKHCVFETKTPNCGTNGASEQVQKEEAELQTLLTNSQESHNSHDGSEEDVDSSEPMYGCDICGAAYTMETLLQNHQLRDHNIRPGESAIVKKKAELIKGNYKCNVCSRTFFSENGLREHMQTHLGPVKHYMCPICGERFPSLLTLTEHKVTHSKSLDTGNCRICKMPLQSEEEFLEHCQMHPDLRNSLTGFRCVVCMQTVTSTLELKIHGTFHMQKTGNGSSVQTTGRGQHVQKLYKCASCLKEFRSKQDLVKLDINGLPYGLCAGCVNLSKSSSPGLSLPPGASRPGLGQNESLSAMEGKGKAGGLKTRCSSCNVKFESESELQNHIQTVHRELVPDANSTQLKTPQVSPMPRISPSQSDEKKTYQCIKCQMVFYNEWDIQVHVANHMIDEGLNHECKLCSQTFDSPAKLQCHLIEHSFEGMGGTFKCPVCFTVFVQANKLQQHIFSAHGQEDKIYDCTQCPQKFFFQTELQNHTMTQHSS
# Experiments:
# 3Flag-Zfp423 (293T) = molecular target: T1, 3Flag-Zfp423 (293T); assay: co-IP; 293T cells transiently transfected (48 h) with 2HA-Zfp521, 3Flag-Zfp423 and 6Myc-Ebf1 in combinations (also without Ebf1); immunoprecipitation with anti-Flag, anti-HA or anti-Myc as indicated, blots with the same antibodies
# 6Myc-Ebf1 (293T) = molecular target: T2, 6Myc-Ebf1 (293T); assay: as above
binder,measurement,setting,value
B1,binding,3Flag-Zfp423 (293T),binds
same,binding,6Myc-Ebf1 (293T),binds
